PubChem BioAssay AID1259424 | University of Nebraska Medical Center | 2018

Assay: 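Find knockdowns that reproduce the expression shifts seen after KSR1 loss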 (primary screen)
Cells: human HCT116 colon cancer cells
Reagents: siRNA pool against human genes, 50 nM
Measurement: 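Six signature mRNAs by branched-DNA multiplex assay, scaled to two housekeeping genes and non-targeting median, log2; matched to mean KSR1 knockdown profile by Pearson correlation and euclidean distance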
Reading the numbers: mean correlation with KSR1 profile: higher = expression change more like KSR1 knockdown
The whole screen tested about 14,000 reagents; shown is a part drawn at random. 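Higher correlation or smaller distance means closer resemblance to KSR1 loss; control wells, including KSR1 knockdowns, recur on many plates.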 Further read-outs or replicates are left out here. Not given: the time to read-out.

gene symbol | mean correlation with KSR1 profile
ACAP1 | 0.407
DUSP12 | -0.0712
LYPLA1 | -0.379
ANAPC7 | -0.639
KCTD17 | -0.331
METTL25B | -0.616
CDH7 | -0.126
OCRL | -0.268
LDHB | -0.0907
HTR3A | 0.449
TMEM51 | -0.864
TG | 0.334
SNTG1 | -0.338
XRCC2 | -0.223
STOX2 | -0.673
DPYSL2 | -0.269
GTF3C5 | -0.206
CCNL1 | 0.73
ZNF319 | -0.189
GRP | -0.568
KCNA7 | -0.45
ATF6 | 0.0419
HIPK3 | 0.149
SIPA1L1 | 0.0321
THUMPD3 | -0.0779
AASS | 0.181
TNIP3 | 0.562
GSDMB | -0.129
BMPR1B | 0.162
DUSP8 | -0.122
GMPS | 0.47
ADAMTS5 | 0.0983
DOCK9 | 0.345
GRIN3A | 0.4
SPHKAP | 0.457
DPM2 | 0.232
ACVR2A | 0.449
PTPRG | 0.441
TGM2 | 0.771
FAM124B | 0.674
KHNYN | 0.216
FAR1 | 0.95
MB | -0.609
PIAS3 | -0.469
GBX2 | 0.276
DAAM2 | -0.376
BATF3 | 0.364
POU2F3 | -0.766
RER1 | -0.62
MAGEA2 | -0.43

A few values from the list:
For “mean correlation with KSR1 profile”, RER1 reads -0.62
Value of HIPK3 in “mean correlation with KSR1 profile”: 0.149
Result for FAM124B under “mean correlation with KSR1 profile”: 0.674
